We go through 40 molecules from PubChem BioAssay AID493014 (National Center for Advancing Translational Sciences (NCATS), 2011).

The nature of this assay: qHTS Assay to Find Inhibitors of Chronic Active B-Cell Receptor Signaling. The settings on record: ABC-DLBCL IkBa-CBG/CBR reporter, luminescence ratio (green luciferase fused to IkBa over red control in TMD8 lymphoma cells), 4 h. Summed up:
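Compounds up to 46 uM were incubated four hours with TMD8 cells whose green CBG68 luciferase is fused to IkappaBalpha; red CBR luminescence normalised the signal, and concentration-effect curves were fitted to fusion, red and ratio data.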
In general terms: In qHTS, concentration-response curves come from the screen itself.

Where [1] appears, read: measured here: CBR red luminescence, cell number.

The list shows a part of the results. Shown are side measurements of this screen, not its main read-out; they come without a call. The list favours compounds with an active or inconclusive main result. Potencies come from curve fits of mixed quality, noted in brackets.

A word on the AC50: it is the concentration at which the activity in the assay is half-maximal. Turning to `COc1ccc(C(=O)OCC[N+]2(C)CCCCC2)cc1`, the concentration at half-maximal activity (AC50) under setting [1] is 0.1 µM [falling, full curve, poor fit].

`O=C(C[C@H]1C(=O)N(c2ccc(F)c(F)c2)C[C@@H]1Cc1ccccc1)Nc1ccccc1`: the concentration at half-maximal activity (AC50) under setting [1] is 14.1 µM [falling, single point]. As for `CCOC(=O)c1c(-c2ccc(C)o2)csc1NC(=O)COC(=O)c1ccc(NC(N)=O)cc1`, under setting [1], the concentration at half-maximal activity (AC50) is 9.2 µM [falling, partial curve, poor fit]. On the same count and under the same terms, under `CC(C)(C)C(=O)Nc1nnc(SCC(=O)NC2CCCCC2)s1` stands 17.8 µM [falling, single point]; under `COc1ccc(NC(=O)CSc2c3c(nc4ccccc24)CCC3)c(OC)c1`, 29.1 µM [falling, partial curve, poor fit]. As to `Cn1cnc([N+](=O)[O-])c1SCC(O)CN1CCCCC1` (stereo unspecified), under setting [1], the concentration at half-maximal activity (AC50) is 14.1 µM [rising, single point]. Turning to `CC(=O)c1cccc(CN2CCN(CCc3ccccc3)C(CCO)C2)c1` (stereo unspecified), the AC50 under setting [1] was 15.8 µM [falling, partial curve]. Regarding `COc1ccc(NC(=O)COC(=O)c2cc(C)oc2C)cc1OC`, the half-maximal activity concentration (AC50) under setting [1] was 1.84 µM [rising, partial curve, poor fit]. Regarding `O=S(=O)(Nc1cccc(-c2ccc(N3CCCC3)nn2)c1)c1ccc(F)cc1F`, under setting [1], the AC50 is 15.8 µM [rising, single point]. `Cc1nn(Cc2ccccc2)c(C)c1C(=O)NCC(c1cccs1)N1CCOCC1` (stereo unspecified): the concentration at half-maximal activity (AC50) under setting [1] was 14.6 µM [rising, partial curve, poor fit]. Consider `COc1ccc(C(=O)Nc2cc(OC)cc(OC)c2)cc1`, for which, under setting [1], the concentration at half-maximal activity (AC50) was 2.24 µM [falling, full curve]. Take `CN(C)c1ccc(CC(=O)c2nc3ccccc3s2)cc1`: the AC50 was 8.2 µM [rising, partial curve] under setting [1] and 23.1 µM [falling, partial curve, poor fit] (measured here: IkBa-CBG green luminescence). Consider `COc1ccc(S(=O)(=O)Nc2cccc(-n3cnnn3)c2)cc1OC`, for which the AC50 under setting [1] was 35.5 µM [falling, single point].

Take `COc1ccccc1N1CCN(Cc2ccc(Br)o2)CC1`: under setting [1], the AC50 is 6.51 µM [rising, single point]. Take `COc1ccc(C(=O)c2oc3ccccc3c2NC(C)=O)cc1`: under setting [1], the AC50 is 29.1 µM [rising, single point]. The same measure, in the same setting: the figure for `COC(=O)c1ccc(COC(=O)CCC(=O)c2cccs2)cc1` is 18.4 µM [falling, partial curve]; for `COc1ccccc1/C=N/NC(=O)c1cccc(NC(=O)c2ccccc2C)c1` it is 11.2 µM [falling, partial curve, poor fit]; for `O=C(/C=C/Nc1nccs1)C(F)(F)Cl` it is 11.2 µM [rising, partial curve, poor fit].

Turning to `CCC(C)n1[nH]c(=O)c2c(C)cc(C)nc21` (stereo unspecified), under setting [1], the AC50 is 29.1 µM [rising, single point]. Same read-out and setting: under `CCOC(=O)c1c(C)n(C)c2ccc(OCC(O)CN(CC)CC)cc12` (stereo unspecified) stands 20.6 µM [rising, single point]; under `COc1ccc(CC(=O)Nc2cccc(-c3ccc4nnc(C)n4n3)c2)cc1`, 35.5 µM [rising, single point]. Regarding `CC(=O)N1CCc2c(sc(NC(=O)C3CCCN3S(=O)(=O)c3cccs3)c2C(N)=O)C1` (stereo unspecified), the AC50 under setting [1] is 2.31 µM [falling, full curve, poor fit]. Still for that read-out and setting: under `CC(CN1CCOCC1)C(=O)O` (stereo unspecified) stands 20.6 µM [rising, partial curve, poor fit]; under `CC1=CSC2=NC(=O)/C(=C\c3cccn3-c3ccc([N+](=O)[O-])cc3)C(=N)N12`, 20.6 µM [rising, partial curve]; under `Cn1c(N)c(S(=O)(=O)N2CCN(Cc3ccccc3)CC2)c(=O)n(C)c1=O`, 35.5 µM [rising, single point]. Take `CN(C)S(=O)(=O)c1cccc(NC(=S)N2CCc3ccccc32)c1`: the half-maximal activity concentration (AC50) under setting [1] is 25.1 µM [falling, single point]. The same measure, in the same setting: the figure for `Cc1nc(N2CCCCC2)sc1C(=O)c1ccc(Cl)c([N+](=O)[O-])c1` is 3.55 µM [falling, full curve, poor fit]; for `COc1ccc(NC(=O)C2CCCN(S(=O)(=O)c3ccc4c(c3)CCCN4C(C)=O)C2)cc1` (stereo unspecified) it is 11.2 µM [falling, partial curve, poor fit]. For `O=C(Cn1c(=O)n(-c2ccccc2)c(=O)c2oc3ccccc3c21)Nc1ccccc1`, the concentration at half-maximal activity (AC50) under setting [1] is 23.1 µM [rising, partial curve, poor fit].

In the case of `CC(=O)O[C@H]1CSC[C@H]1NC(=O)c1ccccc1`, the AC50 under setting [1] was 4.11 µM [rising, partial curve, poor fit]. Turning to `CCOC(=O)[C@H]1[C@H]2COc3cc(OC)ccc3[C@@H]2N2C(=O)N(c3cccc(F)c3)C(=O)[C@@]12C`, under setting [1], the AC50 was 29.1 µM [rising, partial curve, poor fit]. The same measure, in the same setting: under `O=Nc1c(O)n(Cc2cccc(C(F)(F)F)c2)c2ccccc12` stands 2.51 µM [rising, partial curve, poor fit]. On the same count and under the same terms, under `COc1cc(C(C)=O)ccc1OCC(=O)Nc1ccccc1N1CCCC1` stands 2 µM [falling, full curve, poor fit]; under `CCCCN(C)CCCNC(=O)c1cc(Nc2ccc(OC)c(OC)c2)nc2ccccc12`, 12.6 µM [falling, single point]; under `Cc1cc(C(=O)COC(=O)c2ccc(O)cc2O)c(C)n1-c1ccccc1`, 16.4 µM [falling, single point]. The same measure, in the same setting: under `Cc1ccc(Nc2c([N+](=O)[O-])ccc3nonc23)cc1C` stands 25.1 µM [rising, single point]; under `COC(=O)[C@@H]1C[C@]2(OC(=O)c3ccccc3)C=CC(=O)C[C@@H]2N1C(=O)OCc1ccccc1`, 11.6 µM [falling, single point]; under `O=C(CSc1nc2ccccc2c(=O)[nH]1)c1cccs1`, 10 µM [falling, partial curve]. In the case of `CN(C)C(=O)c1cc(C(=O)c2ccc(C(F)(F)F)cc2)c[nH]1`, the half-maximal activity concentration (AC50) under setting [1] was 14.1 µM [rising, partial curve, poor fit]. The same measure, in the same setting: the figure for `CCCc1ccc(-c2cc(NC(=O)CSc3n[nH]c(N)n3)n(-c3ccccc3)n2)cc1` is 0.82 µM [rising, partial curve].
